Structures can show the parent of a compound that is named as a salt. The list shows a part of the results. The calls rarely recur for the same compound in another form.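 Kinases, fused to nanoluciferase, were expressed in K562 cells; luminescence was measured every 4 h from 2 to 18 h as percent of control (DMSO = 100%, positive control = 0%). A time point is decreased if signal falls significantly (2 sigma). Hits were called by the authors by a rule that is not shown; the count of time points alone does not decide it.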
target: CDK2 (UniProt P24941); assay: kinase-Nluc reporter destabilization hit call (1 = scored as downregulated) (binary); higher = compound decreases kinase abundance; settings: K562; 2-18 h

kinase-Nluc reporter destabilization hit call, inactive:
N#Cc1ccc2[nH]c(O)c(-c3ccc(CN4CCOCC4)cn3)c2c1 (10 µM) 0
O=C1NCCc2[nH]c(-c3ccnc(-c4cnc5ccccc5c4)c3)cc21 (10 µM) 0
Oc1cc(O)cc(/C=C/c2ccc(O)c(O)c2)c1 [Piceatannol] (10 µM) 0
O=C(NOC[C@H](O)CO)c1ccc(F)c(F)c1Nc1ccc(I)cc1F (2.5 µM) 0
Cn1c(=O)n(-c2ccc(C(C)(C)C#N)cc2)c2c3cc(-c4cnc5ccccc5c4)ccc3ncc21 [Dactolisib (Tosylate)] (10 µM) 0
CCCCNc1ncc(-c2ccc(CN3CCOCC3)cn2)c(NC2CCC(O)CC2)n1 (stereo not given) (10 µM) 0
O=C(Nc1cc(C(F)(F)F)ccc1N1CCN(Cc2ccccn2)CC1)c1ccc(-c2ccncc2)o1 (10 µM) 0
COC(=O)c1ccc2c(C(=Nc3ccc(N(C)C(=O)CN4CCN(C)CC4)cc3)c3ccccc3)c(O)[nH]c2c1 [Nintedanib] (2.5 µM) 0
COc1cc(F)cc([C@@H](CO)NC(=O)[C@@H](C)N2Cc3ccc(-c4nc(NC5CCOCC5)ncc4Cl)cc3C2=O)c1 [ERK1/2 inhibitor 2] (10 µM) 0
CC(C)c1ccc2oc3nc(N)c(C(=O)O)cc3c(=O)c2c1 [Amlexanox] (10 µM) 0
CN(C)C[C@@H]1CCn2cc(c3ccccc32)C2=C(C(=O)NC2=O)c2cn(c3ccccc23)CCO1 [Ruboxistaurin (hydrochloride)] (10 µM) 0
CCc1nc(-c2cccc(C)c2)c(-c2ccnc(NC(=O)c3ccccc3)c2)s1 (10 µM) 0
CCOc1cc2ncc(-c3cc(N)nc(F)c3)n2cc1S(=O)(=O)C(C)(C)C (10 µM) 0
CC(C)(/C=C(\C#N)C(=O)N1CCC[C@@H](n2nc(-c3ccc(Oc4ccccc4)cc3F)c3c(N)ncnc32)C1)N1CCN(C2COC2)CC1 (2.5 µM) 0
COc1ccc(Oc2cc(NCCC(F)(F)F)c3ncc(-c4ccc(C(=O)NC5CC5)c(C)c4)n3n2)c(F)c1F (2.5 µM) 0
COc1cc(C(=O)NC2CCN(C)CC2)c(F)cc1Nc1ncc2c(n1)N(C1CCCC1)CC(F)(F)C(=O)N2C [TAK-960 (dihydrochloride)] (2.5 µM) 0
COc1ccc(NC(=O)N2CCN(c3nc(N)nc4c3cnn4C)[C@@H](C)C2)c(C)c1 (10 µM) 0
COc1nccc(-c2c(-c3ccc(F)cc3)ncn2C2CCC(O)CC2)n1 (stereo not given) (10 µM) 0
NC(=O)c1ccc2nc(-c3ccc(Oc4ccc(Cl)cc4)cc3)[nH]c2c1 (10 µM) 0
Cc1cc(C)c(/C=C2\C(=O)Nc3ccccc32)[nH]1 [Semaxinib] (10 µM) 0
CN1CCN(c2ccc(Nc3cc(-c4cccc(-n5ccc6cc(C7CC7)cc(F)c6c5=O)c4CO)cn(C)c3=O)nc2)CC1 (2.5 µM) 0
C=CC(=O)N1CCC[C@@H](n2nc(-c3ccc(Oc4ccccc4)cc3)c(C(N)=O)c2N)C1 [Btk inhibitor 2] (10 µM) 0
Cc1c(NC(=O)c2cc3c(s2)CCCC3)cccc1-c1cn(C)c(=O)c(Nc2ccc([C@@H]3C(=O)N(C)CCN3C)cc2)n1 (10 µM) 0
CCOc1ccn(-c2ccc(F)cc2)c(=O)c1C(=O)Nc1ccc(Oc2ccnc(N)c2Cl)c(F)c1 (10 µM) 0
CCn1c(=O)c2cc(C(N)=O)c(N)nc2n(C2CC2)c1=O (10 µM) 0
COc1cc(C(=O)NC2CCN(C)CC2)ccc1Nc1ncc2c(n1)N(C1CCCC1)CC(F)(F)C(=O)N2C (10 µM) 0
CCN1CCN(c2ccc(Nc3cc(N(C)C(=O)Nc4c(Cl)c(OC)cc(OC)c4Cl)ncn3)cc2)CC1 [Infigratinib] (10 µM) 0
CN1CCN(S(=O)(=O)c2ccc(-c3cnc(N)c(C(=O)Nc4cccnc4)n3)cc2)CC1 (10 µM) 0
Cc1cccc([C@@H](CO)NC(=O)[C@@H](C)N2Cc3ccc(-c4nc(NC5CCOCC5)ncc4Cl)cc3C2=O)c1 [ERK1/2 inhibitor 1] (10 µM) 0
COc1cc(CCc2cc(-c3nc4ccc(N5CCN(C)CC5)cc4[nH]3)n[nH]2)cc(OC)c1 (10 µM) 0

In the list so far, 2 contain a CF3 group:
kinase-Nluc reporter destabilization hit call, inactive:
O=C(Nc1cc(C(F)(F)F)ccc1N1CCN(Cc2ccccn2)CC1)c1ccc(-c2ccncc2)o1 (10 µM) 0
COc1ccc(Oc2cc(NCCC(F)(F)F)c3ncc(-c4ccc(C(=O)NC5CC5)c(C)c4)n3n2)c(F)c1F (2.5 µM) 0
